Measured values reported in PMC12007496.
Results are given in words; binding and its absence hold for the method and conditions named. Binding seen in cells or lysates may run through a third protein. Some binding calls cover weakened binding; strength is not graded here.

Sequences of proteins named here, by UniProt entry; tags and fusion partners are left off. Residues count along the entry.
UniProt P05622, residues 32-1098: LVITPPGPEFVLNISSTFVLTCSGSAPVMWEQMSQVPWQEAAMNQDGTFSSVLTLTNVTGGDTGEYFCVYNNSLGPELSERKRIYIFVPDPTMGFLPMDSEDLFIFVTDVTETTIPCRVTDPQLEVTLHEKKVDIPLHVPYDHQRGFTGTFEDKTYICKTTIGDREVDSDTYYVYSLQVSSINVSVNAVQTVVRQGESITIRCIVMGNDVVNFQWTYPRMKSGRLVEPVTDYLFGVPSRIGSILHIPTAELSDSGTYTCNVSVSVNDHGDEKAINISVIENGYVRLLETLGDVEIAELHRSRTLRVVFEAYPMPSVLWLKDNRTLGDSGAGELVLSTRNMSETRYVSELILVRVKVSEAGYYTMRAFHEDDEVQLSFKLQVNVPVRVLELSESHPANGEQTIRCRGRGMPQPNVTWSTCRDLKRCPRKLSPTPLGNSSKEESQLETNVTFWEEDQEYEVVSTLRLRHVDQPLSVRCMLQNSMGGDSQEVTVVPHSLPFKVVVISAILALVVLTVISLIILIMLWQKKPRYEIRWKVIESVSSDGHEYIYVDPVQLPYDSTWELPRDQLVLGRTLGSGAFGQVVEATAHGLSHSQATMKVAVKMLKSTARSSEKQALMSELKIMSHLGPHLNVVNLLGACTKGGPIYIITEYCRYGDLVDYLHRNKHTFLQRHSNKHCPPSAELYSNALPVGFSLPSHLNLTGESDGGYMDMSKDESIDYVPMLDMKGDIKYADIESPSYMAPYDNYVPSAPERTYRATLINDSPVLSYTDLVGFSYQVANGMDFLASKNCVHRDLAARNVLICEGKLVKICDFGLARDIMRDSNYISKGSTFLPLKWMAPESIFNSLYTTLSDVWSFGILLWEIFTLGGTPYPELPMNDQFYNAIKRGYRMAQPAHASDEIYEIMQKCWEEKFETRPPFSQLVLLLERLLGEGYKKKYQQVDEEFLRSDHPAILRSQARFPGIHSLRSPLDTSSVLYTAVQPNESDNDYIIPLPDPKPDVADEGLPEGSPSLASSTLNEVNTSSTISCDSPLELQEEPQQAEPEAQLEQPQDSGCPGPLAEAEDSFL
UniProt P46935: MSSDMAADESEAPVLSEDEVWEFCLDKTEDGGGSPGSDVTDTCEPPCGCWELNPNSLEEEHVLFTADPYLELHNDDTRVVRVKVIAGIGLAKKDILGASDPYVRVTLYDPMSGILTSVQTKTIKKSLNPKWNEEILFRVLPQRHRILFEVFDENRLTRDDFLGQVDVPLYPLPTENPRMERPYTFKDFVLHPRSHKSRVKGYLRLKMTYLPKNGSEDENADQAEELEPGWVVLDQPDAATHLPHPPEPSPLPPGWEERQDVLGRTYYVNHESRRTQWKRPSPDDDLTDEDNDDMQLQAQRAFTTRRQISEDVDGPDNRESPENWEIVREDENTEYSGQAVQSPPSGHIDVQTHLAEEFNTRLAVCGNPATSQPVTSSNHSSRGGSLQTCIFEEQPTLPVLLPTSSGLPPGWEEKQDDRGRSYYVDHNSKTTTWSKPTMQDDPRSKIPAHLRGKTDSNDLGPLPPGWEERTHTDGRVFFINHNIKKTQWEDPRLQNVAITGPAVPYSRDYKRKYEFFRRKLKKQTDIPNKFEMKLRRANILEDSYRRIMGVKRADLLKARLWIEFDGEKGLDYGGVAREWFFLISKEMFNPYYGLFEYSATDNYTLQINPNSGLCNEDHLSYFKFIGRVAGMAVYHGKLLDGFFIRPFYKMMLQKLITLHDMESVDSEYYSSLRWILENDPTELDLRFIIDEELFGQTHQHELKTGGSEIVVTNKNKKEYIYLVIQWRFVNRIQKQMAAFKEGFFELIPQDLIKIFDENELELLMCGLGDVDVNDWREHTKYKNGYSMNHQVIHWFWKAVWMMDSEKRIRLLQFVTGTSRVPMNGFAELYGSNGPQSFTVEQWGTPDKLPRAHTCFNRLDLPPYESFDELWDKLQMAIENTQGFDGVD

Target: Platelet-derived growth factor receptor (PDGFR)β (mouse (endogenous in mouse VSMCs)) (UniProt P05622)
Experiment: co-IP; anti-PDGFRβ antibody with protein A/G beads in lysates of mouse VSMCs (150 mM NaCl, 50 mM Tris-HCl pH 8.0, 1.0% NP-40, 0.5% sodium deoxycholate, 0.1% SDS), overnight at 4 °C, western blot; cells with control or CDCP1 siRNA, with or without PDGF-BB stimulation

- binding: binds
Substance: NEDD4 (from UniProt P46935 1-887) (enzyme)
